Values from PubChem BioAssay AID504808 (Drosophila RNAi Screening Center, 2011)

Assay: 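Fly genes required to hold E2F transcription in check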 (primary screen)
Cells: Drosophila S2 cells
Knock-down reagent: long dsRNA against Drosophila genes
Read-out: 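Dual luciferase plate measurements; E2F-specific signal taken as firefly over Renilla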
Reading the numbers: E2F firefly: higher = more E2F reporter activity; Renilla normaliser: higher = more normaliser reporter signal
Active means: 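Called active if the normalised E2F reporter went up by over 50%; the cutoff is arbitrary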
The screen tested about 21,000 reagents; this is an unselected part of those that have a named target and a result. In the full data, 18 (0.084%) got an active call. 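Raw counts without plate normalisation, one of two replicates; the ratio scores behind the calls were not deposited.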 Not given: the amount of reagent, the time to read-out.

For GrlHz (Gustatory receptor-like Holozoa) [DRSC04424], the entry reads E2F firefly, rep 1 = 80421; Renilla normaliser, rep 1 = 3541; inactive. Phs (Phaser) [DRSC10827] showed E2F firefly, rep 1 = 71133; Renilla normaliser, rep 1 = 3023; inactive. With knock-down of CG12902 [DRSC06217], the screen gave E2F firefly, rep 1 = 1.30e5; Renilla normaliser, rep 1 = 4635; inactive. With knock-down of AP-2alpha (Adaptor Protein complex 2, alpha subunit) [DRSC00800] the results were E2F firefly, rep 1 = 1.70e5; Renilla normaliser, rep 1 = 5753; inactive. After knock-down of CG33332 [DRSC15504] the results were E2F firefly, rep 1 = 1.28e5; Renilla normaliser, rep 1 = 7009; inactive. CG12054 [DRSC14467] showed E2F firefly, rep 1 = 1167; Renilla normaliser, rep 1 = 860; inactive.

Depletion of Spf30 (Splicing factor 30) [DRSC11976] gave: E2F firefly, rep 1 = 1.22e5; Renilla normaliser, rep 1 = 7014; inactive. CG13875 [DRSC08345] gave E2F firefly, rep 1 = 98226; Renilla normaliser, rep 1 = 4425; inactive. Against CG3107 [DRSC04888], the values are E2F firefly, rep 1 = 82633; Renilla normaliser, rep 1 = 3505; inactive. For B-H1 (BarH1) [DRSC19334], the values are E2F firefly, rep 1 = 1.42e5; Renilla normaliser, rep 1 = 5515; inactive. vls (valois) [DRSC02101] scored E2F firefly, rep 1 = 89791; Renilla normaliser, rep 1 = 4034; inactive. Ran [DRSC20364] showed E2F firefly, rep 1 = 50890; Renilla normaliser, rep 1 = 4732; inactive.

3 entries already listed, ordered by “Renilla normaliser, rep 1”, lowest first:
CG3107 [DRSC04888] — E2F firefly, rep 1: 82633; Renilla normaliser, rep 1: 3505; call: inactive
CG13875 [DRSC08345] — E2F firefly, rep 1: 98226; Renilla normaliser, rep 1: 4425; call: inactive
B-H1 (BarH1) [DRSC19334] — E2F firefly, rep 1: 1.42e5; Renilla normaliser, rep 1: 5515; call: inactive

Further reagents follow.
yellow-f [DRSC15348] scored E2F firefly, rep 1 = 1.11e5; Renilla normaliser, rep 1 = 6095; inactive. Against Ipk1 (Inositol phosphate kinase 1) [DRSC04235], the entry reads E2F firefly, rep 1 = 84936; Renilla normaliser, rep 1 = 3578; inactive. Silencing of Ipk1 (Inositol phosphate kinase 1) [DRSC04236] resulted in: E2F firefly, rep 1 = 1.05e5; Renilla normaliser, rep 1 = 4709; inactive. Against Ipk1 (Inositol phosphate kinase 1) [DRSC04237], the entry reads E2F firefly, rep 1 = 96203; Renilla normaliser, rep 1 = 4221; inactive. Against CG9702 [DRSC16540], the values are E2F firefly, rep 1 = 1.29e5; Renilla normaliser, rep 1 = 6937; inactive. With knock-down of CG9205 [DRSC08642] the results were E2F firefly, rep 1 = 67289; Renilla normaliser, rep 1 = 3904; inactive.

After knock-down of L2HGDH (L-2-hydroxyglutarate dehydrogenase) [DRSC02082], the record shows E2F firefly, rep 1 = 88115; Renilla normaliser, rep 1 = 3824; inactive. Vhl (von Hippel-Lindau) [DRSC07716] showed E2F firefly, rep 1 = 1.01e5; Renilla normaliser, rep 1 = 4255; inactive. Knock-down of Drp1 (Dynamin related protein 1) [DRSC00574] resulted in: E2F firefly, rep 1 = 87685; Renilla normaliser, rep 1 = 3929; inactive. daw (dawdle) [DRSC00479] showed E2F firefly, rep 1 = 83706; Renilla normaliser, rep 1 = 3514; inactive. Silencing of Nepl12 (Neprilysin-like 12) [DRSC16411] resulted in: E2F firefly, rep 1 = 1.51e5; Renilla normaliser, rep 1 = 6079; inactive. tobi (target of brain insulin) [DRSC14435] gave E2F firefly, rep 1 = 1.01e5; Renilla normaliser, rep 1 = 5444; inactive.

After knock-down of Abl (Abl tyrosine kinase) [DRSC09661], the screen gave E2F firefly, rep 1 = 1.60e5; Renilla normaliser, rep 1 = 8615; inactive. CG9953 [DRSC11106] gave E2F firefly, rep 1 = 85481; Renilla normaliser, rep 1 = 3522; inactive. For MFS12 (Major Facilitator Superfamily Transporter 12) [DRSC07268] the deposit lists E2F firefly, rep 1 = 3214; Renilla normaliser, rep 1 = 213; inactive. Silencing of CG30419 [DRSC04208] resulted in: E2F firefly, rep 1 = 1.14e5; Renilla normaliser, rep 1 = 4693; inactive. CG30419 [DRSC04209] scored E2F firefly, rep 1 = 1.07e5; Renilla normaliser, rep 1 = 4211; inactive.
